Structures are written as SMILES. Where “and” joins values, the source holds several entries; their conditions need not be identical. Equal values may be shown once. The list shows a part of the results. This data set is noisy: repeats of one test often differ as much as different tests do.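 U2OS cells expressing ACE2 were combined with U2OS cells expressing full-length spike, and imaging quantified fusion as the fraction of nuclei displaying both cell types' fluorescent markers. Non-toxic compounds with a fusion z-score under -3, i.e., over three standard deviations below the plate's DMSO wells, are called inhibitory hits.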

The subject of the assay is U2OS ACE2 x SARS-CoV-2 spike co-culture. In words: cell-cell fusion (fraction fused) z-score vs plate DMSO control; higher = more fusion. Conditions: 30 µM; 5 h; toxicity class: non-toxic, passed QC.
Regarding `O=C([O-])CCCc1ccccc1.[Na+]` [Sodium Phenylbutyrate], the “cell-cell fusion (z-score)” value is inactive: 2.51.

Turning to `CC(=O)CCCCn1c(=O)c2c(ncn2C)n(C)c1=O` [Pentoxifylline], the “cell-cell fusion (z-score)” value is inactive: 2.44.

As for `Cc1ccc(Cl)c(Nc2ccccc2C(=O)[O-])c1Cl.[Na+]`, the “cell-cell fusion (z-score)” value is inactive: 0.941.

In the case of `CC1=C(/C=C/C(C)=C/C=C/C(C)=C/C(=O)Nc2ccc(O)cc2)C(C)(C)CCC1` [Fenretinide], the “cell-cell fusion (z-score)” value was inactive: 0.866.

As to `COc1ccc(-c2oc3cc(OC)ccc3c2C(=O)c2ccc(C#N)cc2)cc1`, the “cell-cell fusion (z-score)” value is inactive: 1.25.

With `CCCCC#Cc1nc(NC)c2ncn([C@@H]3O[C@H](CO)C(O)[C@@H]3O)c2n1` (some centres undefined), the “cell-cell fusion (z-score)” value was inactive: 0.811.

Consider `CCN[C@H]1C[C@H](C)S(=O)(=O)c2sc(S(N)(=O)=O)cc21.Cl` [Dorzolamide hydrochloride], for which the “cell-cell fusion (z-score)” value was inactive: 0.783.

As for `C[N+]1(C)CCc2cc3c(cc2[C@H]1C1OC(=O)c2c1ccc1c2OCO1)OCO3.[I-]` (some centres undefined), the “cell-cell fusion (z-score)” value is inactive: 1.93.

Turning to `Cn1c(=O)c2[nH]cnc2n(C)c1=O` [Theophylline], the “cell-cell fusion (z-score)” value was inactive: 3.26.

In the case of `Nc1nc(Nc2ccccc2)nc2c1ncn2[C@@H]1O[C@H](CO)[C@H](O)C1O` (some centres undefined) [2-Phenylaminoadenosine], the “cell-cell fusion (z-score)” value was inactive: -0.92.

On to `OC(CCN1CCCCC1)(c1ccccc1)C1CC2C=CC1C2` (centres undefined), for which the “cell-cell fusion (z-score)” value is inactive: 1.33.

Regarding `COc1ccc(CN2CCNCC2)c(OC)c1OC.Cl.Cl`, the “cell-cell fusion (z-score)” value is inactive: 0.744.

In the case of `COc1cc2ncnc(Oc3cccc(NC(=O)Nc4cc(C(C)(C)C(F)(F)F)on4)c3)c2cc1OC`, the “cell-cell fusion (z-score)” value is inactive: 0.267.

With `NS(=O)(=O)c1nn2cc(-c3ccccc3)nc2s1`, the “cell-cell fusion (z-score)” value was inactive: 1.85.

Consider `CC(=O)O[C@H]1CC[C@]2(C)C3CC[C@@]4(C)C(CC5O[C@@]6(CCC(C)CO6)[C@@H](C)C54)C3CC[C@@H]2C1` (some centres undefined), for which the “cell-cell fusion (z-score)” value is inactive: 2.74.

Take `C[C@]12CCC(=O)C=C1CCC1C2CC[C@@]2(C)C1CC[C@@H]2O` (some centres undefined): the “cell-cell fusion (z-score)” value was inactive: 1.49.

For `CN(C)CCOC(c1ccccc1)c1ccccc1.Cn1c(=O)c2[nH]c(Cl)nc2n(C)c1=O` [Dimenhydrinate], the “cell-cell fusion (z-score)” value was inactive: 1.45.

Consider `CN(C)c1cc(NC(=O)CNC(C)(C)C)c(O)c2c1C[C@H]1C[C@H]3[C@H](N(C)C)C(O)=C(C(N)=O)C(=O)[C@@]3(O)C(O)=C1C2=O.O` [Tigecycline], for which the “cell-cell fusion (z-score)” value was inactive: 2.58.

As for `O=C(O)c1cccnc1`, the “cell-cell fusion (z-score)” value was inactive: 2.51.

For the compound `C[C@@H]1CC2C3CCC4=CC(=O)C=C[C@]4(C)[C@@]3(F)[C@@H](O)C[C@]2(C)[C@@]1(O)C(=O)COP(=O)([O-])[O-].[Na+].[Na+]` (some centres undefined), the “cell-cell fusion (z-score)” value is inactive: 1.44.

On to `O=NN(CCCl)C(=O)NCCCl` [Carmustine], for which the “cell-cell fusion (z-score)” value is inactive: 1.37.

`Cc1ccsc1/C=C/C1=NCCCN1C.O=C(O)CC(O)(CC(=O)O)C(=O)O`: the “cell-cell fusion (z-score)” value is inactive: 3.47.

`CC(C)Oc1cccnc1N(C)C1CCN(Cc2ccccc2)CC1.O=C(O)/C=C\C(=O)O`: the “cell-cell fusion (z-score)” value is inactive: 1.11.

On to `NC[C@H]1O[C@H](OC2[C@@H](N)C[C@@H](N)[C@H](O[C@H]3O[C@H](CO)[C@@H](O)[C@H](N)[C@H]3O)[C@H]2O)[C@H](O)[C@@H](O)[C@@H]1O.O=S(=O)(O)O` (some centres undefined), for which the “cell-cell fusion (z-score)” value was inactive: 2.29.

In the case of `CC12CCC3C(=CCc4cc(O)ccc43)C1CCC2=O` (centres undefined), the “cell-cell fusion (z-score)” value is inactive: 1.48.

For the compound `Cc1ncc(CO)c(CO)c1O` [Pyridoxine], the “cell-cell fusion (z-score)” value was inactive: 2.16.

As to `CCCC[N+]1(C)C2CC(OC(=O)[C@H](CO)c3ccccc3)CC1C1OC12.[Br-]` (single isomer, unassigned; (-)) [(-)-Scopolamine,n-Butyl-, bromide], the “cell-cell fusion (z-score)” value was inactive: 1.2.

Regarding `Cc1cc(C)cc(OCC2CNC(=O)O2)c1` (centres undefined) [Metaxalone], the “cell-cell fusion (z-score)” value is inactive: 2.76.

As for `COc1ccc(NC(=O)c2ccc(C(=N)N(C)C)cc2)c(C(=O)Nc2ccc(Cl)cn2)c1.O=C(O)/C=C\C(=O)O` [Betrixaban maleate], the “cell-cell fusion (z-score)” value is inactive: -1.16.

As for `CN1C2CCC1CC(OC(=O)c1c[nH]c3ccccc13)C2.Cl` (centres undefined) [3-Tropanyl-indole-3-carboxylate hydrochloride], the “cell-cell fusion (z-score)” value was inactive: 0.347.

`CN1C2CCC1CC(OC(=O)c1c[nH]c3ccccc13)C2.Cl` (centres undefined): the “cell-cell fusion (z-score)” value is inactive: 2.21.

Take `O=C1CCc2cc(OCCCCc3nnnn3C3CCCCC3)ccc2N1`: the “cell-cell fusion (z-score)” value was inactive: 2.26.

`CCC1(c2ccccc2)C(=O)NCNC1=O` [Primidone]: the “cell-cell fusion (z-score)” value was inactive: 3.15.

For the compound `CCOc1nc2cccc(C(=O)OC(C)OC(=O)OC3CCCCC3)c2n1Cc1ccc(-c2ccccc2-c2nnn[nH]2)cc1` (centres undefined), the “cell-cell fusion (z-score)” value is inactive: 0.0899.

Take `CC(=O)OC1CN2CCC1CC2` (centres undefined): the “cell-cell fusion (z-score)” value was inactive: 1.6.

Regarding `COc1cc(C)c(C(=O)Oc2cc(C)c(C(=O)O)c(O)c2C)c(OC)c1C`, the “cell-cell fusion (z-score)” value is inactive: 2.73.

As to `CC(=O)O[C@@H]1C[C@@]2(C)C(CC[C@@H]2C(C)=O)C2CCC3=CC(=O)CC[C@]3(C)C21` (some centres undefined), the “cell-cell fusion (z-score)” value was inactive: 2.15.

Consider `CN1CCCC(n2nc(Cc3ccc(Cl)cc3)c3ccccc3c2=O)CC1.Cl` (centres undefined) [Azelastine hydrochloride], for which the “cell-cell fusion (z-score)” value was inactive: 1.65.

In the case of `C[N+](C)(C)CCO.Cn1c(=O)c2[n-]cnc2n(C)c1=O`, the “cell-cell fusion (z-score)” value was inactive: -0.634.

As to `Cl.Cl.Cl.Cl.NCCCNCCCCNCCCN` [Spermine tetrahydrochloride], the “cell-cell fusion (z-score)” value is inactive: 1.86.

In the case of `CCNc1nc2c(ncn2[C@H]2C[C@H](O)[C@@H](CO)O2)c(=O)[nH]1` [N2-Ethyl-2'-deoxyguanosine], the “cell-cell fusion (z-score)” value is inactive: 1.48.

On to `C[C@]12CC[C@@H]3c4ccc(O)cc4CC[C@H]3[C@@H]1CC[C@@H]2OC(=O)CCC1CCCC1` [Depofemin], for which the “cell-cell fusion (z-score)” value was inactive: 3.18.

`CN(C)CCC(c1ccc(Br)cc1)c1ccccn1.O=C(O)/C=C\C(=O)O` (centres undefined): the “cell-cell fusion (z-score)” value is inactive: 1.19.

Consider `CN(C)CC/C=C1\c2ccccc2COc2ccccc21.Cl` [Doxepin hydrochloride], for which the “cell-cell fusion (z-score)” value is inactive: 2.51.

Regarding `COC1=C(OC)C(=O)C(C/C=C(\C)CC/C=C(\C)CC/C=C(\C)CC/C=C(\C)CC/C=C(\C)CC/C=C(\C)CC/C=C(\C)CC/C=C(\C)CC/C=C(\C)CCC=C(C)C)=C(C)C1=O` [Coenzyme Q10(CoQ10)], the “cell-cell fusion (z-score)” value was inactive: 0.725.

In the case of `Cc1cn(C2CC(N=[N+]=[N-])C(CO)O2)c(=O)[nH]c1=O` (centres undefined), the “cell-cell fusion (z-score)” value is inactive: 2.24.

As for `Cl.Cl.Fc1cc(-c2cccc3ncc(-c4cnn(C5CCNCC5)c4)nc23)cc(F)c1CN1CCOCC1`, the “cell-cell fusion (z-score)” value is inactive: 1.38 and inactive: 2.13.

`C=C1C[C@@H]2[C@H](CC[C@]3(C)C(=O)CC[C@@H]23)[C@@]2(C)C=CC(=O)C=C12` [Exemestane]: the “cell-cell fusion (z-score)” value was inactive: 0.721.

In the case of `COc1ccc([C@H]2COc3c(ccc(O)c3OC)C2)c(OC)c1O`, the “cell-cell fusion (z-score)” value is inactive: 2.3.

For the compound `CC(C)CC(=O)Nc1n[nH]c2c1CN(C(=O)C1CCN(C)CC1)C2(C)C`, the “cell-cell fusion (z-score)” value is inactive: 2.09.

As for `CC(C)CN(C[C@@H](O)[C@H](Cc1ccccc1)NC(=O)O[C@H]1CCOC1)S(=O)(=O)c1ccc(N)cc1` [Amprenavir], the “cell-cell fusion (z-score)” value was inactive: 2.3.

As for `Cn1c([N+](=O)[O-])cnc1COC(N)=O`, the “cell-cell fusion (z-score)” value is inactive: 3.14.

Regarding `O=C1OC(c2ccc(O)cc2)(c2ccc(O)cc2)c2ccccc21`, the “cell-cell fusion (z-score)” value was inactive: 2.74.

Regarding `NS(=O)(=O)c1ccc(-n2nc(C(F)(F)F)cc2-c2ccc(Cl)cc2)cc1`, the “cell-cell fusion (z-score)” value is inactive: 1.87.

As for `CC[C@H](c1cccc(O)c1)[C@@H](C)CN(C)C.Cl`, the “cell-cell fusion (z-score)” value is inactive: 2.56.

On to `CS(=O)(=O)O.OC(CCN1CCCCC1)(c1ccccc1)c1ccccc1`, for which the “cell-cell fusion (z-score)” value was inactive: 2.36.

Take `CC(=O)OCC(=O)[C@@]1(O)CC[C@H]2[C@@H]3CCC4=CC(=O)C=C[C@]4(C)[C@H]3[C@@H](O)C[C@@]21C` [Prednisolone-21-acetate]: the “cell-cell fusion (z-score)” value was inactive: 1.95.

Regarding `COc1cc(SC)ccc1C(=O)N1CCC(Cc2ccccc2)CC1`, the “cell-cell fusion (z-score)” value is inactive: 3.05.

With `NC[C@@H]1O[C@H](O[C@H]2[C@@H](O)[C@H](O[C@@H]3[C@@H](O)[C@H](N)C[C@H](N)[C@H]3O[C@H]3O[C@H](CN)[C@@H](O)[C@H](O)[C@H]3N)O[C@@H]2CO)[C@H](N)[C@@H](O)[C@@H]1O.O=S(=O)(O)O` [Neomycin Sulphate B], the “cell-cell fusion (z-score)” value was inactive: 2.11.

With `Nc1c2c(nc3ccccc13)CCCC2O.O=C(O)/C=C\C(=O)O` (centres undefined), the “cell-cell fusion (z-score)” value is inactive: 1.68.

For the compound `S=C([S-])OC1CC2CC1C1CCCC21.[K+]` [D-609 potassium], the “cell-cell fusion (z-score)” value was active: -4.12.

For the compound `CCCCC(=O)O[C@H]1CCC2C3CCc4cc(O)ccc4C3CC[C@@]21C` (some centres undefined), the “cell-cell fusion (z-score)” value is inactive: 1.23.

For the compound `COc1ccc(C2CNC(=O)C2)cc1OC1CCCC1` (centres undefined) [Rolipram], the “cell-cell fusion (z-score)” value was inactive: 0.997.

For `CN(C)CC[C@@H](c1ccc(Cl)cc1)c1ccccn1.O=C(O)/C=C\C(=O)O` [Dexchlorpheniramine Maleate], the “cell-cell fusion (z-score)” value is inactive: 1.92.

For the compound `COc1ccccc1OCC(O)CN1CCN(CC(=O)Nc2c(C)cccc2C)CC1.Cl.Cl` (centres undefined) [Ranolazine dihydrochloride], the “cell-cell fusion (z-score)” value is inactive: 2.07.

Take `C[C@H]1COC2=C1C(=O)C(=O)c1c2ccc2c1CCCC2(C)C`: the “cell-cell fusion (z-score)” value was inactive: 1.9.

Turning to `CC(C)(C#N)c1cc(Cn2cncn2)cc(C(C)(C)C#N)c1` [Anastrozole], the “cell-cell fusion (z-score)” value is inactive: 4.26.

Turning to `O=c1n(Cl)c(=O)n(Cl)c(=O)n1Cl`, the “cell-cell fusion (z-score)” value was inactive: 0.81.

Take `CCOc1ccc(Cc2cc([C@@H]3O[C@H](CO)[C@@H](O)[C@H](O)[C@H]3O)ccc2Cl)cc1.C[C@H](O)CO.O` [Dapagliflozin ((2S)-1,2-propanediol, hydrate)]: the “cell-cell fusion (z-score)” value was inactive: 1.37.

Values taken from the supplement of paper PMC8104966.
